Measurements reported in the supplement of paper PMC11546906.
Structures can show the parent of a compound that is named as a salt. The list shows a part of the results. Repeats in this data set agree poorly, so a single value says little.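 FDA-approved drugs were each paired with colistin at one-eighth its MIC and screened against a multidrug-resistant, mcr-1-positive clinical E. coli isolate, with OD600 read after 24 h. Drug-free bacteria served as growth control, plain broth as blank. Combinations were active if OD600 dropped below 0.2.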

Tested on: Escherichia coli 42 (mcr-1-positive clinical isolate)
Assay: OD600 after 24 h growth with compound plus colistin (absorbance units (OD600)); higher = more bacterial growth (less inhibition)
Conditions: first compound 25 µM; colistin concentration 0.5 ug/mL; incubation time 24 h; 37 °C

**Q.** With `CCCCN1CCCCC1C(=O)Nc1c(C)cccc1C` (centres undefined) [Bupivacaine hydrochloride] + CCC(C)CCCC(=O)N[C@@H](CCN)C(=O)N[C@H](C(=O)N[C@@H](CCN)C(=O)N[C@H]1CCNC(=O)[C@H]([C@@H](C)O)NC(=O)[C@H](CCN)NC(=O)[C@H](CCN)NC(=O)[C@H](CC(C)C)NC(=O)[C@@H](CC(C)C)NC(=O)[C@H](CCN)NC1=O)[C@@H](C)O [colistin] as the compound, how does the OD600 read?
**A.** inactive: 0.901

**Q.** `C#C[C@]1(O)CC[C@H]2[C@@H]3CCC4=CC(=O)CC[C@@H]4[C@H]3CC[C@@]21CC` [Levonorgestrel] + CCC(C)CCCC(=O)N[C@@H](CCN)C(=O)N[C@H](C(=O)N[C@@H](CCN)C(=O)N[C@H]1CCNC(=O)[C@H]([C@@H](C)O)NC(=O)[C@H](CCN)NC(=O)[C@H](CCN)NC(=O)[C@H](CC(C)C)NC(=O)[C@@H](CC(C)C)NC(=O)[C@H](CCN)NC1=O)[C@@H](C)O [colistin] was tested. Which OD600 did it give?
**A.** inactive: 1.13

**Q.** With `CC(C)(C)NCC(O)c1ccc(O)c(CO)c1` (centres undefined) [Salbutamol] + CCC(C)CCCC(=O)N[C@@H](CCN)C(=O)N[C@H](C(=O)N[C@@H](CCN)C(=O)N[C@H]1CCNC(=O)[C@H]([C@@H](C)O)NC(=O)[C@H](CCN)NC(=O)[C@H](CCN)NC(=O)[C@H](CC(C)C)NC(=O)[C@@H](CC(C)C)NC(=O)[C@H](CCN)NC1=O)[C@@H](C)O [colistin] as the compound, how does the OD600 read?
**A.** inactive: 1.14

**Q.** Which OD600 does the source give for `Cc1cc(C2CCCCC2)n(O)c(=O)c1` [Ciclopirox olamine] + CCC(C)CCCC(=O)N[C@@H](CCN)C(=O)N[C@H](C(=O)N[C@@H](CCN)C(=O)N[C@H]1CCNC(=O)[C@H]([C@@H](C)O)NC(=O)[C@H](CCN)NC(=O)[C@H](CCN)NC(=O)[C@H](CC(C)C)NC(=O)[C@@H](CC(C)C)NC(=O)[C@H](CCN)NC1=O)[C@@H](C)O [colistin] here?
**A.** inactive: 0.963

**Q.** Which OD600 does the source give for `C[C@H](Nc1ncnc2nc[nH]c12)c1cc2cccc(Cl)c2c(=O)n1-c1ccccc1` [Duvelisib] + CCC(C)CCCC(=O)N[C@@H](CCN)C(=O)N[C@H](C(=O)N[C@@H](CCN)C(=O)N[C@H]1CCNC(=O)[C@H]([C@@H](C)O)NC(=O)[C@H](CCN)NC(=O)[C@H](CCN)NC(=O)[C@H](CC(C)C)NC(=O)[C@@H](CC(C)C)NC(=O)[C@H](CCN)NC1=O)[C@@H](C)O [colistin] here?
**A.** inactive: 0.994

**Q.** With `O=C(O)c1cc(=O)c2c(OCC(O)COc3cccc4oc(C(=O)O)cc(=O)c34)cccc2o1` [Cromolyn sodium] + CCC(C)CCCC(=O)N[C@@H](CCN)C(=O)N[C@H](C(=O)N[C@@H](CCN)C(=O)N[C@H]1CCNC(=O)[C@H]([C@@H](C)O)NC(=O)[C@H](CCN)NC(=O)[C@H](CCN)NC(=O)[C@H](CC(C)C)NC(=O)[C@@H](CC(C)C)NC(=O)[C@H](CCN)NC1=O)[C@@H](C)O [colistin] as the compound, how does the OD600 read?
**A.** inactive: 1.11

**Q.** For `CCCSc1ccc2[nH]c(NC(=O)OC)nc2c1` [Albendazole] + CCC(C)CCCC(=O)N[C@@H](CCN)C(=O)N[C@H](C(=O)N[C@@H](CCN)C(=O)N[C@H]1CCNC(=O)[C@H]([C@@H](C)O)NC(=O)[C@H](CCN)NC(=O)[C@H](CCN)NC(=O)[C@H](CC(C)C)NC(=O)[C@@H](CC(C)C)NC(=O)[C@H](CCN)NC1=O)[C@@H](C)O [colistin], which OD600 is on record?
**A.** inactive: 0.626

**Q.** For `C[C@@H]1C[C@H]2[C@@H]3C[C@H](F)C4=CC(=O)C=C[C@]4(C)[C@@]3(F)[C@@H](O)C[C@]2(C)[C@@]1(O)C(=O)CO` [Flumethasone] + CCC(C)CCCC(=O)N[C@@H](CCN)C(=O)N[C@H](C(=O)N[C@@H](CCN)C(=O)N[C@H]1CCNC(=O)[C@H]([C@@H](C)O)NC(=O)[C@H](CCN)NC(=O)[C@H](CCN)NC(=O)[C@H](CC(C)C)NC(=O)[C@@H](CC(C)C)NC(=O)[C@H](CCN)NC1=O)[C@@H](C)O [colistin], which OD600 is on record?
**A.** inactive: 1.18

**Q.** How did the OD600 turn out when `C[C@]12C=CC(=O)N[C@@H]1CC[C@@H]1[C@@H]2CC[C@]2(C)[C@@H](C(=O)Nc3cc(C(F)(F)F)ccc3C(F)(F)F)CC[C@@H]12` [Dutasteride] + CCC(C)CCCC(=O)N[C@@H](CCN)C(=O)N[C@H](C(=O)N[C@@H](CCN)C(=O)N[C@H]1CCNC(=O)[C@H]([C@@H](C)O)NC(=O)[C@H](CCN)NC(=O)[C@H](CCN)NC(=O)[C@H](CC(C)C)NC(=O)[C@@H](CC(C)C)NC(=O)[C@H](CCN)NC1=O)[C@@H](C)O [colistin] was run?
**A.** inactive: 1.19
